## Percent effect of library compounds

Values are the deposited “Percent Effect”, in %. How 0% and 100% were set is not recorded. Most values in the screen are low, and negative values occur. This is an unselected part of the compounds tested. Two or more numbers in one place are separate tests of the same structure; such repeats can differ widely.

Mtb cholesterol medium: 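Phenotypic screen: M. tuberculosis growth, cholesterol and DPPC medium, 4 days; the read-out is not stated. Concentration: 50 µM. The record gives no direction; compounds that gave an IC50 in retests scored well above the rest, so higher reads as more growth inhibition. Of about 69,000 compounds tested this way, about 370 (0.54%) reached 50% or more in at least one test.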
Mtb glucose medium: 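Whole-cell growth test on Mycobacterium tuberculosis, read after 3 days in glucose-containing 7H9 medium; the read-out is not stated. Compounds at 50 µM. Higher reads as more growth inhibition (inferred: compounds with an IC50 in retests scored well above the rest). Size under these conditions: about 69,000 compounds, about 760 of them at 50% or above in at least one test.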

{"smiles": "CCn1c(C)cc(C(=O)NCc2cccc(NS(C)(=O)=O)c2)c1C", "Mtb cholesterol medium": "-23.1 and 14.3", "Mtb glucose medium": "1.467 and 1.388"}
{"smiles": "Cc1ncc2c(n1)CN(CCCc1nc3ccccc3o1)CC2", "Mtb cholesterol medium": 7.269, "Mtb glucose medium": -29.21}
{"smiles": "COc1nn(C)c2c1CCCN(C(=O)c1cscn1)C2", "Mtb cholesterol medium": -13.89, "Mtb glucose medium": 0.8176}
{"smiles": "COC(=O)C1CN(CC(=O)Nc2cc(F)ccc2F)c2ccccc21", "stereo": "stereo not shown", "Mtb cholesterol medium": "-20.14 and -4.748", "Mtb glucose medium": -24.3}
{"smiles": "Cc1ccc(C)c(CN(CC(N)=O)C(C)C)c1", "Mtb cholesterol medium": -22.87, "Mtb glucose medium": -16.3}
{"smiles": "Cn1c2ccc(F)cc2c2ncn(CCCN(CCO)CCO)c(=O)c21", "Mtb cholesterol medium": -19.44, "Mtb glucose medium": -49.35}
{"smiles": "CCOCc1cccc(NC(=O)C2COCCO2)c1", "stereo": "stereo not shown", "Mtb cholesterol medium": -3.448, "Mtb glucose medium": 3.93}
{"smiles": "CCOc1ccc(CNCCCn2ccnc2)cc1Br", "Mtb cholesterol medium": -9.117, "Mtb glucose medium": 6.235}
{"smiles": "COC(=O)c1ccc2ccn(CC3COCCO3)c(=O)c2c1", "stereo": "stereo not shown", "Mtb cholesterol medium": "-4.7 and -0.9603", "Mtb glucose medium": 8.152}
{"smiles": "CC(=O)NCCCC(=O)N1CCC(Sc2cccc(C)c2)CC1", "Mtb cholesterol medium": -0.9627, "Mtb glucose medium": 7.267}
{"smiles": "CC(C)N1CCN(c2ccc3ccc(C(=O)NC4CCCC4)cn23)CC1.O=C(O)C(F)(F)F", "Mtb cholesterol medium": 4.4, "Mtb glucose medium": 35.22}
{"smiles": "CCN1CCN(C(=O)CCC2CCN(C(C)CSC)CC2)CC1", "stereo": "stereo not shown", "Mtb cholesterol medium": 0.259, "Mtb glucose medium": -4.755}
{"smiles": "COc1ccc(S(=O)(=O)NCC(C)(O)c2cccs2)cc1Cl", "stereo": "stereo not shown", "Mtb cholesterol medium": 12.08, "Mtb glucose medium": 40.48}
{"smiles": "O=C(Nc1cc(Cl)ccc1Cl)NC1CCN(C2CCOC2)CC1", "stereo": "stereo not shown", "Mtb cholesterol medium": 5.394, "Mtb glucose medium": "6.453 and 17.62"}
{"smiles": "O=C(O)C(F)(F)F.[H][C@]12CCC[C@@]1(COc1ccccn1)CN(C(=O)c1ncccn1)C2", "Mtb cholesterol medium": -7.172, "Mtb glucose medium": -12.95}
{"smiles": "CCN(CC)c1ccc(C(=O)N2CCC(c3nc(C)no3)CC2)cn1", "Mtb cholesterol medium": -12.23, "Mtb glucose medium": -7.394}
{"smiles": "O=C(O)C(F)(F)F.O=C(O)C(F)(F)F.O=C(O)C(F)(F)F.[H][C@]12C[C@H](C(=O)N3CCN(C)CC3)N(C)[C@@]1([H])CN(c1ncc(C)cn1)C2", "Mtb cholesterol medium": -26.15, "Mtb glucose medium": -45.27}
{"smiles": "Cn1cc(C2CCCN2C(=O)CCCOc2ccc(F)cc2F)cn1", "stereo": "stereo not shown", "Mtb cholesterol medium": -5.041, "Mtb glucose medium": -3.539}
{"smiles": "CC(C)c1n[nH]c(C2CN(C(=O)c3cc(C4CC4)[nH]n3)CCO2)n1", "stereo": "stereo not shown", "Mtb cholesterol medium": -9.877, "Mtb glucose medium": 18.02}
{"smiles": "Cc1nc(O)ccc1C(=O)NCc1ncoc1C", "Mtb cholesterol medium": 11.4, "Mtb glucose medium": 2.782}
{"smiles": "CCc1cc(CN(C)C(=O)CN2CC(c3ccccc3)CC2=O)on1", "stereo": "stereo not shown", "Mtb cholesterol medium": -7.775, "Mtb glucose medium": 2.643}
{"smiles": "COCCC1(CNC(=O)Nc2ccnc(C)c2)CCCC1", "Mtb cholesterol medium": 3.836, "Mtb glucose medium": 14.38}
{"smiles": "c1ccc(OCCCNCCn2cccn2)cc1", "Mtb cholesterol medium": 5.431, "Mtb glucose medium": 25.6}
{"smiles": "CC(O)CN1CCC(CNCCOCC(F)(F)F)CC1", "stereo": "stereo not shown", "Mtb cholesterol medium": -1.814, "Mtb glucose medium": "-11.9 and 11.06"}
{"smiles": "Cc1ccc(C)c(C(=O)NCC(c2cccn2C)N2CCCCCC2)c1", "stereo": "stereo not shown", "Mtb cholesterol medium": 4.512, "Mtb glucose medium": 18.25}
{"smiles": "CCN(Cc1cc(F)ccc1Cl)C1CCS(=O)(=O)C1", "stereo": "stereo not shown", "Mtb cholesterol medium": -10.38, "Mtb glucose medium": "-4.888 and 1.581"}
{"smiles": "CNC(=O)NC(=O)CN1CCC(c2cccc(F)c2)C1", "stereo": "stereo not shown", "Mtb cholesterol medium": 2.821, "Mtb glucose medium": -27.84}
{"smiles": "O=S(=O)(NCCn1ccc(-c2ccccn2)n1)C1CCCCC1", "Mtb cholesterol medium": -20.46, "Mtb glucose medium": 25.55}
{"smiles": "CCC(=O)N1CCC(NC2CCSCC2)C1", "stereo": "stereo not shown", "Mtb cholesterol medium": -8.127, "Mtb glucose medium": -22.38}
{"smiles": "Cc1ccc2occ(CN3CCN(c4ncccn4)CC3)c(=O)c2c1", "Mtb cholesterol medium": 14.65, "Mtb glucose medium": "-5.537 and 2.308"}
{"smiles": "Cc1ccccc1CN(CC(=O)O)C(=O)COCC1CC1", "Mtb cholesterol medium": -3.875, "Mtb glucose medium": -13.76}
{"smiles": "CN(CC1(CO)CCC1)c1nc2c(c(=O)[nH]1)Cc1ccccc1OC2", "Mtb cholesterol medium": -10.74, "Mtb glucose medium": "9.578 and -11.51"}
{"smiles": "COc1ccc2cccc(CC(=O)NCCCc3n[nH]c(C)n3)c2c1", "Mtb cholesterol medium": 2.476, "Mtb glucose medium": 2.951}
{"smiles": "[H][C@]12CNC[C@@]1(C(=O)NCCS(=O)(=O)CC)CN(C1CCCC1)C2", "Mtb cholesterol medium": -5.276, "Mtb glucose medium": -6.134}
{"smiles": "COCCNC(=O)c1cc2c(s1)CCN2S(C)(=O)=O", "Mtb cholesterol medium": 5.436, "Mtb glucose medium": 22.98}
{"smiles": "N#Cc1ccc(NCC(O)c2ccco2)c(C(F)(F)F)c1", "stereo": "stereo not shown", "Mtb cholesterol medium": -22.88, "Mtb glucose medium": -29.35}
{"smiles": "CCS(=O)(=O)N1CCOCC2(CCN(c3ccccn3)C2)C1.O=C(O)C(F)(F)F", "stereo": "stereo not shown", "Mtb cholesterol medium": -4.223, "Mtb glucose medium": 25.18}
{"smiles": "Cc1cc(C(=O)NCCCn2nccc2C2CC2)c(=O)[nH]c1C", "Mtb cholesterol medium": "-9.475 and -5.55", "Mtb glucose medium": "-10.97 and -1.768"}
{"smiles": "COc1cccc(N2CCN(CC(O)c3cc(C)sc3C)CC2)c1", "stereo": "stereo not shown", "Mtb cholesterol medium": -20.07, "Mtb glucose medium": -11.94}
{"smiles": "[H][C@@]12CS(=O)(=O)C[C@]1([H])N(C(=O)c1cc(C)n[nH]1)CCN2CC=C(C)C", "Mtb cholesterol medium": -0.3777, "Mtb glucose medium": 7.873}
{"smiles": "O=C(O)C1(Oc2ccc3ccccc3c2)CCN(c2ncccn2)CC1", "Mtb cholesterol medium": "11.59 and 9.417", "Mtb glucose medium": 10.29}
{"smiles": "COCCC(=O)N1CCC(c2noc3nc(C)cc(C(F)(F)F)c23)CC1", "Mtb cholesterol medium": -11.65, "Mtb glucose medium": 11.95}
{"smiles": "COc1cccc(-n2cc(CN(C)Cc3ccnc(C(C)C)n3)cn2)c1", "Mtb cholesterol medium": 16.13, "Mtb glucose medium": 9.484}
{"smiles": "Cc1ncsc1C(=O)N(Cc1ccccc1)C1CC1", "Mtb cholesterol medium": 5.323, "Mtb glucose medium": 7.411}
{"smiles": "CC(C)(C)C(=O)N1CCC(c2nc(O)cc(-c3ccncc3)n2)CC1", "Mtb cholesterol medium": -9.653, "Mtb glucose medium": 13.32}
{"smiles": "OCCN1CCC(CNCCOCC(F)(F)F)CC1", "Mtb cholesterol medium": 5.18, "Mtb glucose medium": "2.454 and 5.909"}
{"smiles": "CCOC(=O)c1sc2ccsc2c1CNC(=O)CC", "Mtb cholesterol medium": -3.324, "Mtb glucose medium": 19.54}
{"smiles": "O=C(NCCNC1CCN(c2nccs2)CC1)c1cccs1", "Mtb cholesterol medium": -2.162, "Mtb glucose medium": "-5.79 and 3.046"}

Some entries from above, unchanged:

SMILES,Mtb cholesterol medium,Mtb glucose medium
CCN(CC)c1ccc(C(=O)N2CCC(c3nc(C)no3)CC2)cn1,-12.23,-7.394
O=S(=O)(NCCn1ccc(-c2ccccn2)n1)C1CCCCC1,-20.46,25.55
CN(CC1(CO)CCC1)c1nc2c(c(=O)[nH]1)Cc1ccccc1OC2,-10.74,9.578 and -11.51

The values are deposited in ChEMBL (CHEMBL3988442, “University of Dundee, Small-Polar-MMV Screening Library” (2021)).